Two molecules from EP2467164A2 (dated 2012) can be followed below.

Amino acid sequences for entries named in this document (tags omitted). A change or cut given only in a name is not applied to a line headed by its entry.
UniProt P21860: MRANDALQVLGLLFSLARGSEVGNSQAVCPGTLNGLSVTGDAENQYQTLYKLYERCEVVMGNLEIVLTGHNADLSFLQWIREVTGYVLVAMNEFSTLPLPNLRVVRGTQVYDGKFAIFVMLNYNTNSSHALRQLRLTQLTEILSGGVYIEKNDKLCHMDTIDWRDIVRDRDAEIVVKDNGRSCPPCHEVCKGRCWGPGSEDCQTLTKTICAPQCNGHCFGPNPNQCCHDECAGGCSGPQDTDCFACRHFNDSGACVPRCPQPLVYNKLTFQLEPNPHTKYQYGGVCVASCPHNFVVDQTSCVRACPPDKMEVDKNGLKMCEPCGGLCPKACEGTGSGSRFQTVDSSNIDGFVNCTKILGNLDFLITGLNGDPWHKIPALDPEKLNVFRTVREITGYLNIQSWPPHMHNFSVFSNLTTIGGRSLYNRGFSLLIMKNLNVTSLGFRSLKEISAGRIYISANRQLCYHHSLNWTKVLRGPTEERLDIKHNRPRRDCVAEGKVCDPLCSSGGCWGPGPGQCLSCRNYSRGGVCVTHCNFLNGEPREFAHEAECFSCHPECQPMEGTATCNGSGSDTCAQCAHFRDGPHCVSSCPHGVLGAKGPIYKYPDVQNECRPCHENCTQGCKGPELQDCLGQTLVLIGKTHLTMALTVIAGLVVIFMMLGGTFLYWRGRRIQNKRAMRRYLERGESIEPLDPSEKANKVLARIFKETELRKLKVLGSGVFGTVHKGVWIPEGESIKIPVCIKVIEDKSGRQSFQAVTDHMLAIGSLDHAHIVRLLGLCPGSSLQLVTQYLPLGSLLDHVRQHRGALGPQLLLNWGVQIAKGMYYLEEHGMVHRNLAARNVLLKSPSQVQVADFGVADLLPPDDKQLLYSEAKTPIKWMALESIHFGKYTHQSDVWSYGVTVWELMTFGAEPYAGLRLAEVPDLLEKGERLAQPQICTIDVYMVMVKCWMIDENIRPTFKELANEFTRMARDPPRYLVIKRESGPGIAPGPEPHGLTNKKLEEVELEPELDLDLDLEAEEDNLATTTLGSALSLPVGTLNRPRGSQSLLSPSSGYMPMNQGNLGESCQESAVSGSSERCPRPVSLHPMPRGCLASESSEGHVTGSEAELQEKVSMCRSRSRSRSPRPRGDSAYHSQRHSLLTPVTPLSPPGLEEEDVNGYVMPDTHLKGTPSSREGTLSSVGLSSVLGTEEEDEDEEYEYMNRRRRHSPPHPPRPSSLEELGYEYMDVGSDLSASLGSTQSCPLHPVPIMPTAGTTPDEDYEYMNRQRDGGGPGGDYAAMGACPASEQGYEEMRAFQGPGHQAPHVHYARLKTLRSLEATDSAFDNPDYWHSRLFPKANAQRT

These are yes or no findings as the source states them, for the method shown. Some results given as binding are weak or reduced against the parent protein; the word gives no strength.

For assay [1], the target named is Protein A (UniProt P38507). Nature of the assay: paratope mapping screen (Figure 36).
Assay [2] has as its target ErbB3 ectodomain Domain I expressed on the surface of yeast cells (human) (UniProt P21860). Nature of the assay: FACS on yeast displaying ErbB3 Domain I.

B1: single chain (scFv) version of Ab #6 (scFv)
scFv: EVQLLESGGGLVQPGGSLRLSCAASGFTFSHYVMAWVRQAPGKGLEWVSSISSSGGWTLYADSVKGRFTISRDNSKNTLYLQMNSLRAEDTAVYYCTRGLKMATIFDYWGQGTLVTVSSASTGGGGSGGGGSGGGGSQSALTQPASVSGSPGQSITISCTGTSSDVGSYNVVSWYQQHPGKAPKLIIYEVSQRPSGVSNRFSGSKSGNTASLTISGLQTEDEADYYCCSYAGSSIFVIFGGGTKVTVL
Regarding B1, the binding result in assay [1] is reported as “binds”.

B2: Ab #6 (antibody, V domains shown)
VH: EVQLLESGGGLVQPGGSLRLSCAASGFTFSHYVMAWVRQAPGKGLEWVSSISSSGGWTLYADSVKGRFTISRDNSKNTLYLQMNSLRAEDTAVYYCTRGLKMATIFDYWGQGTLVTVSS
VL: QSALTQPASVSGSPGQSITISCTGTSSDVGSYNVVSWYQQHPGKAPKLIIYEVSQRPSGVSNRFSGSKSGNTASLTISGLQTEDEADYYCCSYAGSSIFVIFGGGTKVTVL
notes: also called MM-121; anti-ErbB3 antibody Ab #6
On to B2, for which the binding result in assay [2] was “binds”.
